Data: PMC3991325
No constants are given. Whether binding was seen depends on the method and setting. Binding seen in cells or lysates may run through a third protein. Some binding calls cover weakened binding; strength is not graded here. For some assays here: Sequences can lack the tags named with a protein.

The chains behind the UniProt entries cited, without tags or fusion partners.
UniProt P42945: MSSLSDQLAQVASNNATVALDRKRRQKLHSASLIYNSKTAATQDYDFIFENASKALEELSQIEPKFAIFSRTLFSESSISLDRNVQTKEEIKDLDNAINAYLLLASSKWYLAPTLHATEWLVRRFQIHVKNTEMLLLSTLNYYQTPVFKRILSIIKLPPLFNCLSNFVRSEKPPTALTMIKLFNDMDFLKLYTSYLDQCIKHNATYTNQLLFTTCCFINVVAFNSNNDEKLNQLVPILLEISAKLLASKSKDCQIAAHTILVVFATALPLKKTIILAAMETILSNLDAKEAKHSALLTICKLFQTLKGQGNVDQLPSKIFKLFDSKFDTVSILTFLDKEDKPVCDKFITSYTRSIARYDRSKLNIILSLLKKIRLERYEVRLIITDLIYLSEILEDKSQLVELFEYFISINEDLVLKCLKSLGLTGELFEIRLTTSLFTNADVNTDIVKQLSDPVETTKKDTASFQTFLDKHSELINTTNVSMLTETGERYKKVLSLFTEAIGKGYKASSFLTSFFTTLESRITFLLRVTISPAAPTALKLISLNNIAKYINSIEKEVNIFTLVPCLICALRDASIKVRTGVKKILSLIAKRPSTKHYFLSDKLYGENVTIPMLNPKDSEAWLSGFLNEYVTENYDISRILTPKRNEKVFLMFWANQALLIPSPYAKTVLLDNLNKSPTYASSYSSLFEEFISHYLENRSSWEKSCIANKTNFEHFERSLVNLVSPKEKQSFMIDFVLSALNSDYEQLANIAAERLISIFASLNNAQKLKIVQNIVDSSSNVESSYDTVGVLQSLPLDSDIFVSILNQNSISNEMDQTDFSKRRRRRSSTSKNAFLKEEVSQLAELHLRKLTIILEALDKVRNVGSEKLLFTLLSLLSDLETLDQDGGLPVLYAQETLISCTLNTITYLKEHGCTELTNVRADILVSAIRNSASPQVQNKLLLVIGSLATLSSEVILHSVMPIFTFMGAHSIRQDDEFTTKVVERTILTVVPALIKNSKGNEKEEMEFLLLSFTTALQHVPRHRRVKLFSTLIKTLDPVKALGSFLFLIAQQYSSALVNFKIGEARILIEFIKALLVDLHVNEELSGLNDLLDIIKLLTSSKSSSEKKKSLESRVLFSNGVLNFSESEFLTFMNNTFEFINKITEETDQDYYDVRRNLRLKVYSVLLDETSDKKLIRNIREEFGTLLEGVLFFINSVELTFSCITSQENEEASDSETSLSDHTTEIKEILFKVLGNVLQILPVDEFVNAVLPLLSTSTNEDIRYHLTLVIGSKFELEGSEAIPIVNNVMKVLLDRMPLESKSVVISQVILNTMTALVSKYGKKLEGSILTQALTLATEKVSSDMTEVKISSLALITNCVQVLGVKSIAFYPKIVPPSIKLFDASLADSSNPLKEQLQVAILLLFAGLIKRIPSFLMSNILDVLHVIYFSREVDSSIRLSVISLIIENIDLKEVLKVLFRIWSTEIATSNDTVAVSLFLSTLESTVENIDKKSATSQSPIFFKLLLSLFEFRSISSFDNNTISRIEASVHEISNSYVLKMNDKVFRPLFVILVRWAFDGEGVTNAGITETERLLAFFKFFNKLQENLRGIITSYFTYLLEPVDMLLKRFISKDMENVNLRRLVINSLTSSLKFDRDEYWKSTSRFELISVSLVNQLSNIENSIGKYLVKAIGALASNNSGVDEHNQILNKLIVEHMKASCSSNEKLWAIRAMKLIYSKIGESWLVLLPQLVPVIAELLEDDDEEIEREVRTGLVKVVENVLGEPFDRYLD
UniProt P35194: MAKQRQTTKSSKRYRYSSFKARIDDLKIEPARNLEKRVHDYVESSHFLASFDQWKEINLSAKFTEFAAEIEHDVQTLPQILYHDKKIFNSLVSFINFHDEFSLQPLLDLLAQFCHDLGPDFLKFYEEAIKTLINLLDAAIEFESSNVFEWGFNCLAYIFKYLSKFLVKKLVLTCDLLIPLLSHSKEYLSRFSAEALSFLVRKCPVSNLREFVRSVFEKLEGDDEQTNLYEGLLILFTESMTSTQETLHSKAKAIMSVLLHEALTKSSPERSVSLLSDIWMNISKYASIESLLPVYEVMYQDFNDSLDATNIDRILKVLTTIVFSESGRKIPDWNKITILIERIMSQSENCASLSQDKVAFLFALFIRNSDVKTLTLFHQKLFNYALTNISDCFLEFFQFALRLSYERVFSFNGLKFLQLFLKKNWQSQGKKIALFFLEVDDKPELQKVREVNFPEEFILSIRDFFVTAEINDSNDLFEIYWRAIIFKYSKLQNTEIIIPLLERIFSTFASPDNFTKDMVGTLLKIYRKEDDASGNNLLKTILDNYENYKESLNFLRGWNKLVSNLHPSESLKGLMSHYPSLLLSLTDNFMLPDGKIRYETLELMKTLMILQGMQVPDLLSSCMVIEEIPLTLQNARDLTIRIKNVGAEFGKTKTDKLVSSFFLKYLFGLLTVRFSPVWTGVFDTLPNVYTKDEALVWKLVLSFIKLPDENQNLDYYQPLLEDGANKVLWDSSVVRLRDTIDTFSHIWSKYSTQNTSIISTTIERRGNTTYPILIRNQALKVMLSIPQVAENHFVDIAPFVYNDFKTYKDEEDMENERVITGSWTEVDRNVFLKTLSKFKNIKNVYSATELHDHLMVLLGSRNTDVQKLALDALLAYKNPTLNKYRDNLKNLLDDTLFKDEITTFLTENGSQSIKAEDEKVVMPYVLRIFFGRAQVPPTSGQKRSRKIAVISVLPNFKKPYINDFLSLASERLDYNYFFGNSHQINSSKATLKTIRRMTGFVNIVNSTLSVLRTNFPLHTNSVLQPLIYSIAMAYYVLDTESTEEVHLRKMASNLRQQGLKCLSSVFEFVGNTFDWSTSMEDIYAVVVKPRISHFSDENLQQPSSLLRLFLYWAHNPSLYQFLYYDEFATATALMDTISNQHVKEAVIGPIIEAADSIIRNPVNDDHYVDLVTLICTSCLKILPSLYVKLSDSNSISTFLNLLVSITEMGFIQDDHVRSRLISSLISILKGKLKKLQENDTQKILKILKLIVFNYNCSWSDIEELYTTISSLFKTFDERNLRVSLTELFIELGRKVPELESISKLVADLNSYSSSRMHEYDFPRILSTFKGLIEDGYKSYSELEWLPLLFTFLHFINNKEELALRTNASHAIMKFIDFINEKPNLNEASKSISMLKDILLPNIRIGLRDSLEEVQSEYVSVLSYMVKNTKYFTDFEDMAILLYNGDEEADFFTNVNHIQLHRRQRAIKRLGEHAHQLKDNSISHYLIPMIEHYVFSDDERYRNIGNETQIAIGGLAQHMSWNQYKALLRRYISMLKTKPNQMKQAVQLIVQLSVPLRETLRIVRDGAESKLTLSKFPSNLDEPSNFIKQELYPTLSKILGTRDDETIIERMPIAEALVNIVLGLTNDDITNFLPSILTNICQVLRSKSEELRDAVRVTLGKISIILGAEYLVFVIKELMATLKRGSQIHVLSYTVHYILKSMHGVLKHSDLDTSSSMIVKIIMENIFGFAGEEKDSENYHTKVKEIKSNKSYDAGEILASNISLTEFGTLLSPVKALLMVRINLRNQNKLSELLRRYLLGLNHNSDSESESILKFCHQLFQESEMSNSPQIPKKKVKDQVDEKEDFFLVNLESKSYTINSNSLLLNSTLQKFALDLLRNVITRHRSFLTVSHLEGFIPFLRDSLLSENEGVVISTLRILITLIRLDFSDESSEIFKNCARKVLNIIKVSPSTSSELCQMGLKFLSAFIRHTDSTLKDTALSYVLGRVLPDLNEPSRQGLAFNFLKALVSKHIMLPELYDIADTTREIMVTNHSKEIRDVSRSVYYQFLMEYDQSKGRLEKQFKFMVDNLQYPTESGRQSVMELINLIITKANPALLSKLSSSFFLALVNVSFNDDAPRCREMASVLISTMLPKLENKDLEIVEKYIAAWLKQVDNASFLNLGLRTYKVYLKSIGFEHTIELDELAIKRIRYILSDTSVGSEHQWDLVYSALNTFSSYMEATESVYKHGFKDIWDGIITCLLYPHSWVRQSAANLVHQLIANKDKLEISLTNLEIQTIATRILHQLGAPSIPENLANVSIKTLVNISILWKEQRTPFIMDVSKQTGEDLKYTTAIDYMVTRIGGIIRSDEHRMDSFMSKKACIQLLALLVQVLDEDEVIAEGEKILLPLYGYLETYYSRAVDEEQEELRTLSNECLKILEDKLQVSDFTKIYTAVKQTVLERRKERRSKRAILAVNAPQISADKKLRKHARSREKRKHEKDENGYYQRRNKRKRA
UniProt Q05022: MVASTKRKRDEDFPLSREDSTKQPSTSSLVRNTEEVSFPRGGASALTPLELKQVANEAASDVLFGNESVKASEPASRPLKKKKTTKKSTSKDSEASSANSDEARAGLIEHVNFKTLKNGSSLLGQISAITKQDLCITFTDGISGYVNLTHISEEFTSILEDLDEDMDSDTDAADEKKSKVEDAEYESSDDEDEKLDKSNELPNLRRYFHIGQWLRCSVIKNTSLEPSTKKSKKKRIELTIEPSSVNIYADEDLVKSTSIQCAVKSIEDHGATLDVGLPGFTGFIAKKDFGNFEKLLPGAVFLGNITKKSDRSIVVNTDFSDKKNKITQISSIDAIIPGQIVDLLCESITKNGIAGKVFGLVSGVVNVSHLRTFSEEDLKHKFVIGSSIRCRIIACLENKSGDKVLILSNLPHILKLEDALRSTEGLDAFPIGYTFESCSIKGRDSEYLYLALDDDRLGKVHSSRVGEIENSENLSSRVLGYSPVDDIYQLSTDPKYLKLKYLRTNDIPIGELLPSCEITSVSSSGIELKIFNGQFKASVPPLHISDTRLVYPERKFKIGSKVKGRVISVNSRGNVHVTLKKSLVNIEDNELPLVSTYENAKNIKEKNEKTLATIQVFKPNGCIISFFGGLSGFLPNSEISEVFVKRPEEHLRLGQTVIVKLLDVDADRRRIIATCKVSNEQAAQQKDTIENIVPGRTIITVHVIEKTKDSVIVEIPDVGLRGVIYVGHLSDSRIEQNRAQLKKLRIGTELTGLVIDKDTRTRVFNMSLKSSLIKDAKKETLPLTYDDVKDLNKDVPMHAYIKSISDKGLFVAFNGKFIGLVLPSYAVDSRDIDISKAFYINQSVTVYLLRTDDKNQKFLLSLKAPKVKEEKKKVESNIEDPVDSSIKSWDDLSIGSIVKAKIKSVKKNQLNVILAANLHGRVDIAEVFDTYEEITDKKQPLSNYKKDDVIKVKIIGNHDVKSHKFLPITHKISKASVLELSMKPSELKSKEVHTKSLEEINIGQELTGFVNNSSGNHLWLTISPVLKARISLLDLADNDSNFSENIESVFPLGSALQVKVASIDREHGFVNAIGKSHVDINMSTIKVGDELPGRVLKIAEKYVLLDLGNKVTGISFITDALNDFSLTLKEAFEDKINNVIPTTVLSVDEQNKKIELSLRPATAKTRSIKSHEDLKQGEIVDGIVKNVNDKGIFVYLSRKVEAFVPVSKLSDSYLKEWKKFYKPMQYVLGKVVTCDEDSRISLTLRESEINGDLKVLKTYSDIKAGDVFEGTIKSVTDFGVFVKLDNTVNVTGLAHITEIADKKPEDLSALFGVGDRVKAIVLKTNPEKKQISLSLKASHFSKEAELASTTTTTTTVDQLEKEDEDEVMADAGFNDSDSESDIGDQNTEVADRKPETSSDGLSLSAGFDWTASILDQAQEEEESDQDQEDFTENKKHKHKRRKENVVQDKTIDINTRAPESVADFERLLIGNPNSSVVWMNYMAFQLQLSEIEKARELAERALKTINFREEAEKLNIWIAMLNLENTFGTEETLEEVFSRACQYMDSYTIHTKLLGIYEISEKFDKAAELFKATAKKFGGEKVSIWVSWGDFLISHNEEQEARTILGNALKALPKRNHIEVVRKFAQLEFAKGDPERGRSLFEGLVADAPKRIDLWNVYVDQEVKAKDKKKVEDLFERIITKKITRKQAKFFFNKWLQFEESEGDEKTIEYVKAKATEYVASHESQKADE

Legend:
Test in all cases: co-IP; GFP-tagged proteins bound to anti-GFP beads at 500 mM NaCl, with and without prior treatment with RNase A + T1; Rrp5-HTP detected by western blotting with anti-TAP antibodies
[1] = biological target: T1, GFP-tagged Kre33 (budding yeast) (UniProt P53914)
T1 sequence: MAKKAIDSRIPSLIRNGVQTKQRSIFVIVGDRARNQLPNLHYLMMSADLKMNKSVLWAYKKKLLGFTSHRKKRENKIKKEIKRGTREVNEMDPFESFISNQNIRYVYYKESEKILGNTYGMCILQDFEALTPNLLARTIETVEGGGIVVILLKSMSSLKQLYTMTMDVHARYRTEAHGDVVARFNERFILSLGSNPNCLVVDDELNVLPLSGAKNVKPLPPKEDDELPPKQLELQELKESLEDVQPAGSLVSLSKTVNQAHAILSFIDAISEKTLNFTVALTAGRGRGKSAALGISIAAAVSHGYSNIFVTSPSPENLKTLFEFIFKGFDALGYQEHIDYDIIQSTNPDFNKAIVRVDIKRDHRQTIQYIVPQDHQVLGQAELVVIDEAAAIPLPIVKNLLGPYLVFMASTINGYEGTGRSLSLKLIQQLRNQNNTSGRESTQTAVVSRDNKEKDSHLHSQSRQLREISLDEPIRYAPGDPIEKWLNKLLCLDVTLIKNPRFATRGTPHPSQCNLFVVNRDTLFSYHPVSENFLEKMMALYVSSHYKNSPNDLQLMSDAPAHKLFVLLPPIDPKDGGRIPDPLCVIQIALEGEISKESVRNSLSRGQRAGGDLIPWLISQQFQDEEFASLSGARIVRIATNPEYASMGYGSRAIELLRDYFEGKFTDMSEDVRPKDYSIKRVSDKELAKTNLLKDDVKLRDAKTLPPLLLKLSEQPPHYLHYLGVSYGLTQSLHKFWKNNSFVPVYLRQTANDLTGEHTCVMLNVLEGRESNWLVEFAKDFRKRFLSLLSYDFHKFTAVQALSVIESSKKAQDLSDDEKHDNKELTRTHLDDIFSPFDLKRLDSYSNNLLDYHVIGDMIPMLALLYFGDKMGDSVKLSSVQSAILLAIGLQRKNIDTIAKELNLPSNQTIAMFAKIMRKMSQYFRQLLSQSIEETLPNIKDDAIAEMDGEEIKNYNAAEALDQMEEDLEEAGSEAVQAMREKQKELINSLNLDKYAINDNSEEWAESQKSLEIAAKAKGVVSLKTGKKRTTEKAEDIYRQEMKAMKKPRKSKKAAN

[2] = biological target: T2, GFP-tagged Nop58 (budding yeast) (UniProt Q12499)
T2 sequence: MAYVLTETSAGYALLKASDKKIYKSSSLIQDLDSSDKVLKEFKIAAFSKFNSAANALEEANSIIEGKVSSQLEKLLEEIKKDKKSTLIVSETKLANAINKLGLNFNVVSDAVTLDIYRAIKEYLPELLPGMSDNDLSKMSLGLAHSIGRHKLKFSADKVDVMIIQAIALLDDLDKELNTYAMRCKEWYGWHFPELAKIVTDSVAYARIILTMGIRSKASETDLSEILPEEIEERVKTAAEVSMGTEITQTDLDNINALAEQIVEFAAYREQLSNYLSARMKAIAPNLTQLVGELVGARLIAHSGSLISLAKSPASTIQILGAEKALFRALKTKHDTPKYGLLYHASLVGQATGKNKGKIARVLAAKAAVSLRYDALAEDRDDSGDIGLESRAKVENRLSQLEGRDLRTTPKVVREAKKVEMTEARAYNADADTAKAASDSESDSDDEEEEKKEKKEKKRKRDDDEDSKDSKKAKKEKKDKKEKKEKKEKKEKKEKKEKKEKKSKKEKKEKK

[3] = biological target: GFP-tagged Utp10 (budding yeast) (UniProt P42945)
[4] = biological target: GFP-tagged Utp20 (budding yeast) (UniProt P35194)
[5] = biological target: T3, GFP-tagged Utp21 (budding yeast) (UniProt Q06078)
T3 sequence: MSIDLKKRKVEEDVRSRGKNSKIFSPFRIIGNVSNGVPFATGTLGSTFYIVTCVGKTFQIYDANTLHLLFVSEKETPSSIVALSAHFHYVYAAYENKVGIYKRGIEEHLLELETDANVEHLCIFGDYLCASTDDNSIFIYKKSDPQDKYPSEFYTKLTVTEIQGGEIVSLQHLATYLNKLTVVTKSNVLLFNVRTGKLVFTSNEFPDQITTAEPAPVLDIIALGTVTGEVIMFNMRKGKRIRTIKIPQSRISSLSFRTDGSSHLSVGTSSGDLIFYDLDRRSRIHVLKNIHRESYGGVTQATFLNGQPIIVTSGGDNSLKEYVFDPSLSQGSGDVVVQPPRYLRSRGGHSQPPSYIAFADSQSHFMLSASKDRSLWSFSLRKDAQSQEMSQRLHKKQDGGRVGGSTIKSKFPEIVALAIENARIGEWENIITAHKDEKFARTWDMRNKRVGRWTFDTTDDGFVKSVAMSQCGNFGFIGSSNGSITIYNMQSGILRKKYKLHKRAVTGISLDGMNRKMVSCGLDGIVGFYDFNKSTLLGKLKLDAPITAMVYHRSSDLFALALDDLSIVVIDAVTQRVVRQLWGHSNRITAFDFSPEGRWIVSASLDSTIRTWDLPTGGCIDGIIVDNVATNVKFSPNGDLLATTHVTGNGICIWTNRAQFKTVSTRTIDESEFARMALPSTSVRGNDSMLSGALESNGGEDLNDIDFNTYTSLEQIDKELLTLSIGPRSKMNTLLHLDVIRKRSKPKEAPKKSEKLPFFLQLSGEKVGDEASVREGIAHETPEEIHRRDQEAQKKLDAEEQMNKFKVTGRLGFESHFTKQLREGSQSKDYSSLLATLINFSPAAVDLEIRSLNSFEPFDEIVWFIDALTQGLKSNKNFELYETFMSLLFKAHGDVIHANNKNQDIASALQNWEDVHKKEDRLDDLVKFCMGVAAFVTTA

Measured: binding

Rrp5-HTP (from UniProt Q05022 1-1729)
binds: all assays above
